Results are given in words; binding and its absence hold for the method and conditions named. Some results given as binding are weak or reduced against the parent protein; the word gives no strength.
Columns and labels:
Plexin B1 [1] = target: Plexin B1 (UniProt O43157); experiment: flow cytometry on 293/Plexin B1 cells; bound CD100-His detected with biotinylated rabbit anti-His and streptavidin-APC, FL4-H
Plexin B1 [2] = target: Plexin B1 (UniProt O43157); experiment: CD100-AP (50 ng) on COS/Plexin B1 cells; bound CD100-AP shown by alkaline phosphatase staining
Plexin B1 [3] = target: Plexin B1 (UniProt O43157); experiment: flow cytometry on 293/Plexin B1 cells; bound CD100-AP detected with biotinylated rabbit anti-His and streptavidin-APC, FL4-H

Amino acid sequences for entries named in this document (tags omitted). Residues count along the entry.
UniProt O43157, residues 20-2135: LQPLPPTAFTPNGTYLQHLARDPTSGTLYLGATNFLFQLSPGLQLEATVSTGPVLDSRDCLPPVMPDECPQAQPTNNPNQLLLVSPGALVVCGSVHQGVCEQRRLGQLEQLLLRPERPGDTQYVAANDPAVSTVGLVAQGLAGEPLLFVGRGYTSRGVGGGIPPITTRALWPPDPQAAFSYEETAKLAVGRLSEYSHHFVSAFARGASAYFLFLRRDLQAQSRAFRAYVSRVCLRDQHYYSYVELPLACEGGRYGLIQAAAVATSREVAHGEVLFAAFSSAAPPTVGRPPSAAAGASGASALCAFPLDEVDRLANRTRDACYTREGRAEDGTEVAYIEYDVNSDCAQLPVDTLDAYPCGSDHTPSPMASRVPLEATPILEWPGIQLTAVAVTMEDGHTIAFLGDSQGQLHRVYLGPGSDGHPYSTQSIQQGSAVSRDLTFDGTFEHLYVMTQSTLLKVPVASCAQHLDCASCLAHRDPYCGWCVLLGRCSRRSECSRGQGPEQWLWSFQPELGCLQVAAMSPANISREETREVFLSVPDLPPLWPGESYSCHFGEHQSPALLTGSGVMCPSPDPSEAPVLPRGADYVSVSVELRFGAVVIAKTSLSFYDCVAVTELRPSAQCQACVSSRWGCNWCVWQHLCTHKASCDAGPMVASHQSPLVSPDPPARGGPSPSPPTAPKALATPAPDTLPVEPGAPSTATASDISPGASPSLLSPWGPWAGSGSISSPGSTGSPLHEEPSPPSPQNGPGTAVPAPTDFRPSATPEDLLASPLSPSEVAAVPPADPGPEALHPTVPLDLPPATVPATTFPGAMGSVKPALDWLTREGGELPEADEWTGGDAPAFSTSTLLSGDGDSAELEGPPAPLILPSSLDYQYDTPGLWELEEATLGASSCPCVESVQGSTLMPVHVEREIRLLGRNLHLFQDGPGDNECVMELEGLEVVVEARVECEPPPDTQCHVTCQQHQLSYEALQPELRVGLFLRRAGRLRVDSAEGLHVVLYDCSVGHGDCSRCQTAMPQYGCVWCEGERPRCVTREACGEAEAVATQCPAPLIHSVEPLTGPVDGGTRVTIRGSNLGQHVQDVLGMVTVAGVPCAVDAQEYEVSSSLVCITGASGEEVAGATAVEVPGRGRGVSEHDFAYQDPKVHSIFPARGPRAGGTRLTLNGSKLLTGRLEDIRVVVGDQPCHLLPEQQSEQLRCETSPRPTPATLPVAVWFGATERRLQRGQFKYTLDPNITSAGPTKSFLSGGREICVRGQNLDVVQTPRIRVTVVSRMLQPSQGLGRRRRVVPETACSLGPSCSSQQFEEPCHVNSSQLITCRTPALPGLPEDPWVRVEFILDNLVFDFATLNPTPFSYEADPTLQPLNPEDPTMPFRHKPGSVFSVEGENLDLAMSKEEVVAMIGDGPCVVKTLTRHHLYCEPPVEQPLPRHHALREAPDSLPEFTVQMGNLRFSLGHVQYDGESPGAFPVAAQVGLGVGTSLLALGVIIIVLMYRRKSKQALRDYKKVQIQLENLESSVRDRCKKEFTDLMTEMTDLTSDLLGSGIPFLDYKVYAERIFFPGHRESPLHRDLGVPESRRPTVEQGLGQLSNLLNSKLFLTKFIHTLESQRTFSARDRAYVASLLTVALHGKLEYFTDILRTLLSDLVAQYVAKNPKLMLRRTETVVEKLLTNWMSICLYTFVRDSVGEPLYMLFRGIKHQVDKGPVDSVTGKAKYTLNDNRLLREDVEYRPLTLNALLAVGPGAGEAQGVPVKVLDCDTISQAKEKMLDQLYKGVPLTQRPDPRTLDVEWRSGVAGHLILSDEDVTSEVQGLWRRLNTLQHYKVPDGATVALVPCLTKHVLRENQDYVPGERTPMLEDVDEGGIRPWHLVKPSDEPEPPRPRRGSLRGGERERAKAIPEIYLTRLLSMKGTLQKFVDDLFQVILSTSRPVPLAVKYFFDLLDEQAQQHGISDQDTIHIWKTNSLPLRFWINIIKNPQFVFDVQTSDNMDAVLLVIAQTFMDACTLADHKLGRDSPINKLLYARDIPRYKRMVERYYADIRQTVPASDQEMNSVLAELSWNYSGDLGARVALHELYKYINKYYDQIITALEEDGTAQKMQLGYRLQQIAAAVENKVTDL
UniProt Q92854, residues 22-734: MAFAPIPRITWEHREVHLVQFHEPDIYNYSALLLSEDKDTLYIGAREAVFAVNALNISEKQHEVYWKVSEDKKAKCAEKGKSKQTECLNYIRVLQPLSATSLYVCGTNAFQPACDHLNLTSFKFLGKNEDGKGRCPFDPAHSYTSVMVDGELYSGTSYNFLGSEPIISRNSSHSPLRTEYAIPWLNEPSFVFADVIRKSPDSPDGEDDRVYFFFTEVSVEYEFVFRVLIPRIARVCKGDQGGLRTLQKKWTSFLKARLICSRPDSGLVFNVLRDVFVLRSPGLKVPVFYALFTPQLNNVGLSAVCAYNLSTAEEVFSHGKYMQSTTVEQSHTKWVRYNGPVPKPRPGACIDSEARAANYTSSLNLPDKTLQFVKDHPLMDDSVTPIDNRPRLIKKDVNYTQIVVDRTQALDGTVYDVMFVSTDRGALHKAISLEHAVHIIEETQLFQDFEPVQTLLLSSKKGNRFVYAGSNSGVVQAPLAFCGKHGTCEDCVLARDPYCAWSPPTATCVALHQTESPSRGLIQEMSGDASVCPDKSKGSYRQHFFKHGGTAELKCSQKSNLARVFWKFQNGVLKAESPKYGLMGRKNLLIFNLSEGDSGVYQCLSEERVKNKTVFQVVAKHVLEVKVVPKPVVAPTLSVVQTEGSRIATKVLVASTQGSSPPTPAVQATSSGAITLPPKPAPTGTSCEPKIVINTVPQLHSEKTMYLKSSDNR

binding (Plexin B1 [1]) | binding (Plexin B1 [2]) | binding (Plexin B1 [3]) | Substance
binds |  |  | human CD100-His (from UniProt Q92854 22-734) (ligand)
 | binds | binds | CD100-AP (from UniProt Q92854 22-734)

Reference: patent US20080219971A1
